Source: the M2OR odorant receptor database
This is a selection; strong and weak results do not stand in their true shares. The calls were merged from several studies; some rest on single wells. Some of the results follow.

Legend:
Details in all cases: stereoisomer not certain
OR6C2 (Homo sapiens) = target: T1, OR6C2 (Homo sapiens) (UniProt Q9NZP2)
T1 sequence (whole entry): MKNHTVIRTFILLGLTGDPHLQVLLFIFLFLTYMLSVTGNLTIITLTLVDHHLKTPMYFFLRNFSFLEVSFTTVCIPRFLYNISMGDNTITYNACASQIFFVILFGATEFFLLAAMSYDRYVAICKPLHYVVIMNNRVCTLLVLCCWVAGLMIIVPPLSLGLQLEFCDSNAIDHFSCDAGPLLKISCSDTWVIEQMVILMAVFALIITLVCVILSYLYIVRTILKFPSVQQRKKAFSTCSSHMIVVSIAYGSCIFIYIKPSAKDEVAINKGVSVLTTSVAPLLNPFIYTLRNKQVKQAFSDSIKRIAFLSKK
How it was run: (§1)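 Transient luciferase assays in mammalian cell lines were common, though methods varied by source. The values come from published papers and their supplementary material, with extra details from the original authors when needed. Responsive refers to a measured signal the original authors judged statistically different from baseline, and non-responsive (inactive) to the remainder.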

OR6C3 (Homo sapiens) = target: T2, OR6C3 (Homo sapiens) (UniProt Q9NZP0)
T2 sequence (whole entry): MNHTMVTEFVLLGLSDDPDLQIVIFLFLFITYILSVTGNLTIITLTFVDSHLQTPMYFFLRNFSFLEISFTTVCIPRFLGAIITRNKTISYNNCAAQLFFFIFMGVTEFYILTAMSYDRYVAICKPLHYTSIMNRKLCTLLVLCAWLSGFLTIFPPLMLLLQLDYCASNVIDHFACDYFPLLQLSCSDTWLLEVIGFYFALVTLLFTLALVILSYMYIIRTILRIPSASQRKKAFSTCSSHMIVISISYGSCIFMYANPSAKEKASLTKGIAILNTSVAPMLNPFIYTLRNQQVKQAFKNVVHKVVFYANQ
How it was run: as §1

OR6C4 = test system: T3, OR6C4
T3 sequence (whole entry): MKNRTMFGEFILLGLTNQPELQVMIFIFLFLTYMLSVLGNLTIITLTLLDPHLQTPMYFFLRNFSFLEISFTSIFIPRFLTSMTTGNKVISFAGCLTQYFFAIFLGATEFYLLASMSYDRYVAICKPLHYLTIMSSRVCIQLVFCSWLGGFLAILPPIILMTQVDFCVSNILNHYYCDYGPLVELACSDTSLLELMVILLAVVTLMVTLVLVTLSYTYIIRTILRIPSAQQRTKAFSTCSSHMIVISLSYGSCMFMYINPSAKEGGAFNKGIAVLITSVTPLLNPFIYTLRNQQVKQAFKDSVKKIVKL
How it was run: as §1

OR6C6 (Homo sapiens) = target: T4, OR6C6 (Homo sapiens) (UniProt A6NF89)
T4 sequence (whole entry): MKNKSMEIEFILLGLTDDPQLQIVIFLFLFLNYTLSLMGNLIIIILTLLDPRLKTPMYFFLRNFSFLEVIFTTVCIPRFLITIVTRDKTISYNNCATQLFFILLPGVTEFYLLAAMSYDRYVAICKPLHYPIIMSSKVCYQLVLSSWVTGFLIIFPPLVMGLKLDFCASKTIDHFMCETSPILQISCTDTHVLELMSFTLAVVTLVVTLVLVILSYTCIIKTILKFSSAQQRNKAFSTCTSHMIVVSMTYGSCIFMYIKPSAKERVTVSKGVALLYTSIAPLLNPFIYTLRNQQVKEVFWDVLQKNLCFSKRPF
How it was run: as §1

OR6C65 (Homo sapiens) = target: T5, OR6C65 (Homo sapiens) (UniProt A6NJZ3)
T5 sequence (whole entry): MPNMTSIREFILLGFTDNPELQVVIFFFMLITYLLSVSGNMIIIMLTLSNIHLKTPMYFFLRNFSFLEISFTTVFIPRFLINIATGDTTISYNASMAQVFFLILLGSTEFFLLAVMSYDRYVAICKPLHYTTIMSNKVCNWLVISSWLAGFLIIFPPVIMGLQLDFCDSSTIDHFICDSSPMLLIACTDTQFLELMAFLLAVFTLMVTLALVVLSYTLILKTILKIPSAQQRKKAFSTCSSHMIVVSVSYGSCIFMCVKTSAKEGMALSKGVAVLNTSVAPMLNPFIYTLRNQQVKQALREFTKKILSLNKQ
How it was run: as §1

OR6C74 (Homo sapiens) = target: T6, OR6C74 (Homo sapiens) (UniProt A6NCV1)
T6 sequence (whole entry): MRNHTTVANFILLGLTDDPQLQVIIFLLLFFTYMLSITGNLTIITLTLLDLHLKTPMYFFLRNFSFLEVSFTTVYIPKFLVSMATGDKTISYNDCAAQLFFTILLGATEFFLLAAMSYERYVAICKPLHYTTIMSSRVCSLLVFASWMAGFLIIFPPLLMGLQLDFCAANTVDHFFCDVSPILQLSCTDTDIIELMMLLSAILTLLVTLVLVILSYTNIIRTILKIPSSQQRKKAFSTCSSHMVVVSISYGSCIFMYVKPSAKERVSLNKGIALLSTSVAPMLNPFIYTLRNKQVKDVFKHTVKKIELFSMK
How it was run: as §1

OR6C75 (Homo sapiens) = target: T7, OR6C75 (Homo sapiens) (UniProt A6NL08)
T7 sequence (whole entry): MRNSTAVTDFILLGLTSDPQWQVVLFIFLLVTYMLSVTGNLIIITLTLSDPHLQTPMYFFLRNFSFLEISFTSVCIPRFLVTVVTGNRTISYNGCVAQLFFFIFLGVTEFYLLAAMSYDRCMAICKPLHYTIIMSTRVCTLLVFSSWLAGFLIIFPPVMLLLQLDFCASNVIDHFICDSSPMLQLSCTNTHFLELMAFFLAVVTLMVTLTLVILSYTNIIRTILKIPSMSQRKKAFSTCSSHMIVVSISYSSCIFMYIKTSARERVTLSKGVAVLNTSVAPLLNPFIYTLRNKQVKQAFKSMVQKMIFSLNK
How it was run: as §1

OR6C76 (Homo sapiens) = target: T8, OR6C76 (Homo sapiens) (UniProt A6NM76)
T8 sequence (whole entry): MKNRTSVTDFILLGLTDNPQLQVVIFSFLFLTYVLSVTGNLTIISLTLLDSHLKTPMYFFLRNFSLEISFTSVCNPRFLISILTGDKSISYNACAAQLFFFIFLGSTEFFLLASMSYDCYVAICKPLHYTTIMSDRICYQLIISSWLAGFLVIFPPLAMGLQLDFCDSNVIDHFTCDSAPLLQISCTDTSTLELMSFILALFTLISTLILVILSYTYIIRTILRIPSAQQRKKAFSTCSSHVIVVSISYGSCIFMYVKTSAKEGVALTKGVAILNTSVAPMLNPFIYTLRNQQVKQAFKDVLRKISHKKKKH
How it was run: as §1

OR6F1 (Homo sapiens) = target: T9, OR6F1 (Homo sapiens) (UniProt Q8NGZ6)
T9 sequence (whole entry): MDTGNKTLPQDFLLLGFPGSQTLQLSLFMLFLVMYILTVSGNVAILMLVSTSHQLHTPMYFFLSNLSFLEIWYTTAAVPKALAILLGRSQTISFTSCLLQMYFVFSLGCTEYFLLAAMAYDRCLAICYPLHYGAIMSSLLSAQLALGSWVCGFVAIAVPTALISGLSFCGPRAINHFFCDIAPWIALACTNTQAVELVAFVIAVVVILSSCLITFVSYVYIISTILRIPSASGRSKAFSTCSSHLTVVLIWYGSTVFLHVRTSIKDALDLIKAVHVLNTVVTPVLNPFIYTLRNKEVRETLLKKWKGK
How it was run: as §1

OR6J1 = test system: T10, OR6J1
T10 sequence (whole entry): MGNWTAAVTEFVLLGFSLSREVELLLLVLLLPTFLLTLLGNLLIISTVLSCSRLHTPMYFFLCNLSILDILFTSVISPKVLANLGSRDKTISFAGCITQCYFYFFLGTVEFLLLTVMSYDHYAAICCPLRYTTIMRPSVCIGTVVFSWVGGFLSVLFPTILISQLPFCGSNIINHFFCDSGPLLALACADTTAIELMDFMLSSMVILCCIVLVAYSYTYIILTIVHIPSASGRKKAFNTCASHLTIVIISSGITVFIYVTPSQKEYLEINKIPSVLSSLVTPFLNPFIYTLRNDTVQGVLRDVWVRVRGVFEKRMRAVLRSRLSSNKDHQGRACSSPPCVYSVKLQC
How it was run: as §1

Measured: odorant receptor agonist call;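 further: active if original authors judged signal statistically different from baseline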

CS
inactive: OR6C2 (Homo sapiens) | OR6C3 (Homo sapiens) | OR6C4 | OR6C6 (Homo sapiens) | OR6C65 (Homo sapiens) | OR6C74 (Homo sapiens) | OR6C75 (Homo sapiens) | OR6C76 (Homo sapiens) | OR6F1 (Homo sapiens) | OR6J1
